Reference: article PMC4867686
No constants are given. Whether binding was seen depends on the method and setting. Some entries that bind do so weakly or less than the wild type. Tags and fused reporters may be left off the sequences shown.

Experiments:
[1] = molecular target: T1, phyA:BD (Arabidopsis phyA holophytochrome bait, BD at the C-terminus) (Arabidopsis) (UniProt P14712); assay: two-hybrid; MatchMaker GAL4 System 3; semi-quantitative growth assay, 2 x 10^5 doubly transformed yeast cells spotted on TSD (-Trp/-Leu/-His) with 3-AT (2.5 mM or 1 mM) and 30 uM PCB, 5 days in Rc, Rp, Rp+FRp or D
T1 sequence (chain, phycocyanobilin (PCB) chromophore, auto-assembled in yeast fed with PCB): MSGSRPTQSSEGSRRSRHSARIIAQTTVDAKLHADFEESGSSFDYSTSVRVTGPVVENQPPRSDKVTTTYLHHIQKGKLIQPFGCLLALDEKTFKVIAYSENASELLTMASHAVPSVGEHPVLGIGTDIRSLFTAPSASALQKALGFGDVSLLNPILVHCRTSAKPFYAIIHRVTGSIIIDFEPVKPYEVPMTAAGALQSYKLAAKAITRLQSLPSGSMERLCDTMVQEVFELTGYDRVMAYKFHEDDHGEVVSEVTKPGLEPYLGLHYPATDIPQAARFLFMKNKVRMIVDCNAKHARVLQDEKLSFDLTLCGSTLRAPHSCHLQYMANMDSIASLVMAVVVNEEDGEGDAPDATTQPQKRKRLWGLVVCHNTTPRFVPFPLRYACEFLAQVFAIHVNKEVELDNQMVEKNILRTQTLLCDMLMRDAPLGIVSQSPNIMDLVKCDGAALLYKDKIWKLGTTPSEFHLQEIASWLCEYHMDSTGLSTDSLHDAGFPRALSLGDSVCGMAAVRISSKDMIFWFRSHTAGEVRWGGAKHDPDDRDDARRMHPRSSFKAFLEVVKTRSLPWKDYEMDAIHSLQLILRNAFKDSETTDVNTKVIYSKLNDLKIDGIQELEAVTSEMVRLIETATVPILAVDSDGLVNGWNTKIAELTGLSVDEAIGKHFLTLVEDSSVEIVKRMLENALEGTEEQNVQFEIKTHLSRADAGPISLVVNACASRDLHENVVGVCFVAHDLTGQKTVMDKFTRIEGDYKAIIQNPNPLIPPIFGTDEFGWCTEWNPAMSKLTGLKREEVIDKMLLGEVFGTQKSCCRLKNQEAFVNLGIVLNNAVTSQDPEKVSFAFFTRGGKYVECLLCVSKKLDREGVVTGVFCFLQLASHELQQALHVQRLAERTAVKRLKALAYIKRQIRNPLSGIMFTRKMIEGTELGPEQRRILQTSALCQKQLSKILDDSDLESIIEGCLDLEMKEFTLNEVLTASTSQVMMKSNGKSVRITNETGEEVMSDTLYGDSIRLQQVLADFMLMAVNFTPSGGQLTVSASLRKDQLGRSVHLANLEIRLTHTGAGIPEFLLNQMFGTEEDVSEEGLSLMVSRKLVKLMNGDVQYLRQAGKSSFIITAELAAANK

[2] = molecular target: T2, BD:phyA (Arabidopsis phyA holophytochrome bait, BD at the N-terminus) (Arabidopsis) (UniProt P14712); assay: as above
T2 sequence (chain, phycocyanobilin (PCB) chromophore, auto-assembled in yeast fed with PCB): T1 sequence (chain, phycocyanobilin (PCB) chromophore, auto-assembled in yeast fed with PCB)

[3] = molecular target: T1, phyA:BD (Arabidopsis phyA holophytochrome bait, BD at the C-terminus) (Arabidopsis); assay: two-hybrid; mating of Y187 bait strain to AH109 prey strain, selection on PCB supplemented medium in Rc

binding [1]: binds
binding [2]: binds
binding [3]: binds
B1: AD:FHY1 (FAR-RED-ELONGATED HYPOCOTYL 1) (protein, UniProt Q8S4Q6 1-202)
chain: MPEVEVDNNNEKPSEINSFHHMIISSSKNVLKMEEVEVSKKRKFQTDQSDELSLLPLSKHTCFANVACSENTNGNSEIDTEYSMSSYVNSTTSMECNNDIEMKEESSGSCGEDKMISFESHLDYIYGTQNLEDFSEKVIENILYLDEQEEEEEDAKGCSSNAAKFVLSSGRWTVNQDDSTLHETKKPTIDQEFEQYFSTLML
